# Laboratory results published in PMC7131931.
# Amino acid sequences for entries named in this document (tags omitted). A change or cut given only in a name is not applied to a line headed by its entry.
# UniProt P25116: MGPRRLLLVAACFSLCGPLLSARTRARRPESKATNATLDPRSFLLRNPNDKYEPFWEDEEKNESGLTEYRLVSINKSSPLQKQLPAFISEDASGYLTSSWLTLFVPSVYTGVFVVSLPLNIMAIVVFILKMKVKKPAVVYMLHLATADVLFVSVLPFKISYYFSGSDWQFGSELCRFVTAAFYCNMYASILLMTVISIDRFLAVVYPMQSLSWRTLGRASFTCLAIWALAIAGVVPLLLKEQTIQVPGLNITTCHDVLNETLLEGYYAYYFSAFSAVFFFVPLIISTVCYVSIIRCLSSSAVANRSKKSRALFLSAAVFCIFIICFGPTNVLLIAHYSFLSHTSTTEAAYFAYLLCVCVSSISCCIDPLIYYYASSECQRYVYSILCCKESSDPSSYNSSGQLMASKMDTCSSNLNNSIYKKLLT
# No constants are given. Whether binding was seen depends on the method and setting. A result given as binding can be weak or reduced; the word gives no strength.
# B1: Endothelial protein C receptor (receptor, UniProt Q9UNN8 18-210)
# chain: SQDASDGLQRLHMLQISYFRDPYHVWYQGNASLGGHLTHVLEGPDTNTTIIQLQPLQEPESWARTQSGLQSYLLQFHGLVRLVHQERTLAFPLTIRCFLGCELPPEGSRAHVFFEVAVNGSSFVSFRPERALWQADTQVTSGVVTFTLQQLNAYNRTRYELREFLEDTCVQYVQKHISAENTKGSQTSRSYTS
# Biological target: Protease-activated receptor 1 (UniProt P25116)
# Assay: MST; PAR-1 at constant concentration (printed as 1 mmol/L) with twofold serial dilutions of EPCR; RED-NHS labelled protein; MST-optimized buffer; 15 minutes at room temperature; standard-treated capillaries; Monolith NT.115; 60% MST power; both purified
binder,measurement,value
B1,binding,binds
